Structures were worked out from names or drawings and are uncertain.

By UniProt entry, the sequences of proteins in these tests, tags left out. Chains listed by the source or under a name are the forms on record and can include a tag or linker.
UniProt P13569, with tags, fused parts or gaps DEL508-508: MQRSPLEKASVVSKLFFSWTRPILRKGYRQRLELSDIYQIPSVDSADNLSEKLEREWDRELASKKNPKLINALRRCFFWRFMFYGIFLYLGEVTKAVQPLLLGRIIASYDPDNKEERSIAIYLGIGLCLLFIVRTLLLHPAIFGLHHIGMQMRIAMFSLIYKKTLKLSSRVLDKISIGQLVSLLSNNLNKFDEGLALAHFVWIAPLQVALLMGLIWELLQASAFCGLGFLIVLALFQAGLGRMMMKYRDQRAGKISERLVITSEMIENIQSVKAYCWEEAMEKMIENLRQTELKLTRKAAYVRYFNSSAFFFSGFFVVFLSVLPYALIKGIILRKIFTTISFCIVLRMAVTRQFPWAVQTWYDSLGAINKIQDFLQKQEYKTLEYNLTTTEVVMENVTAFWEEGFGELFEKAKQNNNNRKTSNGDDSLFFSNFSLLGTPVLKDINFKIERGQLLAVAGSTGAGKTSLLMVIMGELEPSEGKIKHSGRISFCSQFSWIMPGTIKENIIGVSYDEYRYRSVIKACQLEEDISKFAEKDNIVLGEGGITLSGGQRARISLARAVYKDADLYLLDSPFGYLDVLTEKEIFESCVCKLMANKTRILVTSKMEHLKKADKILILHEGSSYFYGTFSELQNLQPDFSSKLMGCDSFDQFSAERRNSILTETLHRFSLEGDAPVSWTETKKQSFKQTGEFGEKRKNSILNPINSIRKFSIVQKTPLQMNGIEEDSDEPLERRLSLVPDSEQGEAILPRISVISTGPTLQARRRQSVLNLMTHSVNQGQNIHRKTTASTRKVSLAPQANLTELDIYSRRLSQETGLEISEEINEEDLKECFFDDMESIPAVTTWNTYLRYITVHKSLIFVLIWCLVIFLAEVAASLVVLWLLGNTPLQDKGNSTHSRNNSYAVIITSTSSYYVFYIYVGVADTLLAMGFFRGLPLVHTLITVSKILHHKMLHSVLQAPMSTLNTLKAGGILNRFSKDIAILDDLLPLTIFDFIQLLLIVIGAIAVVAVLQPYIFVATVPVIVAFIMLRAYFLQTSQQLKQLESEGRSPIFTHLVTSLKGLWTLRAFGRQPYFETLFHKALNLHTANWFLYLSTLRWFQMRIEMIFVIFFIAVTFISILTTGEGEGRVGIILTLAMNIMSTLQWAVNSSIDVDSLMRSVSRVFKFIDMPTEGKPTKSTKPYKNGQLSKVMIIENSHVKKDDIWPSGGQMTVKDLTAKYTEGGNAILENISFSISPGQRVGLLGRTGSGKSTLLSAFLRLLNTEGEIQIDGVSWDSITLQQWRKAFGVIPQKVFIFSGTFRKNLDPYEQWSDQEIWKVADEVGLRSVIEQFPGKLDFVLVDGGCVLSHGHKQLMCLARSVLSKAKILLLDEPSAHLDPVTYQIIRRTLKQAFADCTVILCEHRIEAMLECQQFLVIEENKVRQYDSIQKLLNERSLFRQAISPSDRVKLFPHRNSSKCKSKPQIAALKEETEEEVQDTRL

Experiment [1] concerns the target F508del/F508del CFTR (Homo sapiens, UniProt P13569, DEL508-508). Put plainly: Trans-Epithelial Current Clamp (TECC) assay using primary human bronchial epithelial cells. As to conditions: for Emax (% Dual): maximum percent activity relative to positive control (co-corrector 0.15 μM + potentiator 0.45 μM = 100%); for EC50: primary hBE cells F508del/F508del, test corrector with co-corrector and potentiator, 18-24 hours, equivalent CFTR current. An excerpt: A cell-based assay was developed using the primary human bronchial epithelial cells (hBE cells) with F508del/F508del CFTR and other mutations.
Primary human bronchial epithelial (hBE) cells from CFTR patients with homozygous F508del/F508del mutation were expanded from 1×10^6 to 250×10^6 cells (Neuberger, T et al., 2011, Methods Mol Biol 741:39-54). For this purpose, cells isolated from CF patients with the homozygous mutation, procured from the CF center tissue procurement and cell culture core at the Marsico Lung Institute at UNC (Randell), the Cystic Fibrosis translational research center at McGill University (University), and Rosalind Franklin University Medical School (RFUMS) were seeded onto 24 well Corning (Cat #3378) filter plates that were coated with 3T3 conditioned media and grown at an air-liquid interface for 35 days using an Ultroser® G supplemented differentiation media. All the primary human bronchial epithelial cells were collected in accordance with institutional review board approval protocols. Apical surface mucus was removed 72 hours before the experiment by incubating the apical surface of the cells for 30 minutes with 3 mM dithiothreitol (DTT) prepared in Dulbecco's phosphate buffered saline (DPBS) with Ca^2+ and Mg^2+. This was followed with aspiration of the mucus from the apical surface along with DPBS. The apical surface was re-washed with phosphate buffered saline (PBS) incubated for 30 minutes followed with aspiration. […] This chronic treatment with the potentiator helped eliminate any interaction that might happen with CFTR modulators (correctors and potentiators) and thereby determined the true efficacy of the modulator combinations reflective of clinical relevance.
The assay uses a Transepithelial Current Clamp (TECC) (Vu, C B et al., 2017; J Med Chem 60:458-473) instrument that can measure the functionality of the mutated channel by measuring the equivalent CFTR current (IEQ) generated by the polarized primary epithelial cells. […] Each measured VT values were corrected for the electrode offset potential measured using buffer alone in a separate plate, and each measured RT values were then corrected for the combined solution series and empty filter resistances. […] The area under the curve (AUC) for the time period between the forskolin peak IEQ response and at the time of bumetanide addition was also calculated using a one-third trapezoid method, in addition to calculating the IEQ. The assay was run in a 24-well format and all 24-wells were measured at the same time point giving a higher throughput for this assay. […]

Experiment [2] has as its target F508delCFTR (Homo sapiens, UniProt P13569, DEL508-508). Description: Cell Surface Expression-Horse Radish Peroxidase (CSE-HRP) assay in CFBE41o-F508delCFTR-HRP cells. As to the method: A cellular assay for measuring the F508delCFTR cell surface expression after correction with test compounds either without or with a co-corrector (2 μM of 3-[(2R,4R)-4-({[1-(2,2-difluoro-1,3-benzodioxol-5-yl)cyclopropyl]carbonyl}amino)-7-methoxy-3,4-dihydro-2H-chromen-2-yl]benzoic acid), was developed in human lung derived epithelial cell line (CFBE41o-) (Veit G et al, (2012) Mol Biol Cell. 23(21): 4188-4202). The development was achieved by expressing the F508delCFTR mutation along with a horseradish peroxidase (HRP) in the fourth exofacial loop, and then measuring the HRP activity using luminescence readout from these cells, CFBE41o-F508delCFTR-HIRP, that were incubated overnight with the test corrector compounds, either without or with the co-corrector. […] Post incubation, the plates were washed 5× times with Dulbecco's phosphate buffered saline (DPBS), followed by the addition of the HRP substrate, luminol (50 μL), and measuring the HRP activity using luminescence readout on EnVision® Multilabel Plate Reader (Perkin Elmer; product number 2104-0010). The raw counts from the experiment were analyzed using Accelrys® Assay Explorer v3.3. […]

By EC50 is commonly meant the concentration giving half of the maximal effect. On to `COc1ccc(C)cc1[C@]1(C(=O)NS(=O)(=O)c2cccc3nc(C)ccc23)CC(C)(C)CO1`, for which, in experiment [1], the “Emax (% Dual)” value is 167 % Dual and the EC50 is 503 nM.
Take `COc1ccc(C)cc1C1(C(=O)NS(=O)(=O)c2cccc3nc(C)ccc23)CC2(COC2)CO1` (stereo not drawn): in experiment [2] (normalized to on-plate positive control), the “Maximum % activity (without co-corrector)” value was found to be 320%. Moreover, the EC50 in experiment [2] (read-out: EC50 (without co-corrector), CFBE41o-F508delCFTR-HRP cells, 18-24 hours at 33° C.) was 7180 nM. Moreover, in experiment [1], the “Emax (% Dual)” value was found to be 154 % Dual and the EC50 turned out to be 50.4 nM.

(Values after patent US20220211692A1, “Modulators of the Cystic Fibrosis Transmembrane Conductance Regulator Protein and Methods of Use” (AbbVie Global Enterprises Ltd., priority 2021, published 2022).)
